# Laboratory results as given in the supplement of paper PMC10849652.
# Protein sequences, listed by entry. Tags and fused reporters are not part of them. Lines headed by an entry give the natural chain unless they say otherwise; changes in a name come on top.
# UniProt Q9C0J8: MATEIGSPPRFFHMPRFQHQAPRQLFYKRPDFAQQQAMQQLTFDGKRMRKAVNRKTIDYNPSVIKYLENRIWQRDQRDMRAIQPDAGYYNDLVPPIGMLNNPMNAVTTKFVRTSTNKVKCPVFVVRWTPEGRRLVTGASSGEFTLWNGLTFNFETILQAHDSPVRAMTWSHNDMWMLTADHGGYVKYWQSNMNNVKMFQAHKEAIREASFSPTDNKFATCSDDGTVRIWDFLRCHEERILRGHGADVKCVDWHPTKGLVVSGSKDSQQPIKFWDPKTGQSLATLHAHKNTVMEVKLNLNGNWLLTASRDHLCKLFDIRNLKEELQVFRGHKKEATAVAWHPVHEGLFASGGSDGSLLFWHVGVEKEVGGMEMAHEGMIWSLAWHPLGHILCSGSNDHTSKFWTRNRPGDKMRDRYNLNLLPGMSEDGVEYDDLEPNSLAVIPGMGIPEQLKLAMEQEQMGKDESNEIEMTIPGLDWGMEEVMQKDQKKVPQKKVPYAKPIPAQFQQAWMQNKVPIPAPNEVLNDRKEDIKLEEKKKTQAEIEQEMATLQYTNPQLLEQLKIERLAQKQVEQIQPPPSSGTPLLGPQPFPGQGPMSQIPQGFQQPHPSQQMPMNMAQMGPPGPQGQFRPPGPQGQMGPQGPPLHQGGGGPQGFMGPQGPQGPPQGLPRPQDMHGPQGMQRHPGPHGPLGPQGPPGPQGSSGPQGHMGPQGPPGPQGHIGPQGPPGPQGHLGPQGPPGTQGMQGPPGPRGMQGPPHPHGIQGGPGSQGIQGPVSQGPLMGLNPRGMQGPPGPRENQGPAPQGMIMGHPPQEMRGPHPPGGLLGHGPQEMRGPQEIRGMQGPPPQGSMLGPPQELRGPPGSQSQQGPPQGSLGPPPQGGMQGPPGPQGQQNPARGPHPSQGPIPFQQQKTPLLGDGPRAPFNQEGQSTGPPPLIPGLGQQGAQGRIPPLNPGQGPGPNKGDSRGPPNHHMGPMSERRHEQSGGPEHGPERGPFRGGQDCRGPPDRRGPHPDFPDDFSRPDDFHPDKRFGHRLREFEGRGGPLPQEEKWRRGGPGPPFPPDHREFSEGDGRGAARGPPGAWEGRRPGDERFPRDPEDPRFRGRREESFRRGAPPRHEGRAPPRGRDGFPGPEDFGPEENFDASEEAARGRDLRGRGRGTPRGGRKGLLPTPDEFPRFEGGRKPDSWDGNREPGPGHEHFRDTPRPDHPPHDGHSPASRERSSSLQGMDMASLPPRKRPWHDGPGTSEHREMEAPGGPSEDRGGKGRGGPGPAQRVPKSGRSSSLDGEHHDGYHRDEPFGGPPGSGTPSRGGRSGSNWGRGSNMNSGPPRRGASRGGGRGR
# UniProt A4UGR9: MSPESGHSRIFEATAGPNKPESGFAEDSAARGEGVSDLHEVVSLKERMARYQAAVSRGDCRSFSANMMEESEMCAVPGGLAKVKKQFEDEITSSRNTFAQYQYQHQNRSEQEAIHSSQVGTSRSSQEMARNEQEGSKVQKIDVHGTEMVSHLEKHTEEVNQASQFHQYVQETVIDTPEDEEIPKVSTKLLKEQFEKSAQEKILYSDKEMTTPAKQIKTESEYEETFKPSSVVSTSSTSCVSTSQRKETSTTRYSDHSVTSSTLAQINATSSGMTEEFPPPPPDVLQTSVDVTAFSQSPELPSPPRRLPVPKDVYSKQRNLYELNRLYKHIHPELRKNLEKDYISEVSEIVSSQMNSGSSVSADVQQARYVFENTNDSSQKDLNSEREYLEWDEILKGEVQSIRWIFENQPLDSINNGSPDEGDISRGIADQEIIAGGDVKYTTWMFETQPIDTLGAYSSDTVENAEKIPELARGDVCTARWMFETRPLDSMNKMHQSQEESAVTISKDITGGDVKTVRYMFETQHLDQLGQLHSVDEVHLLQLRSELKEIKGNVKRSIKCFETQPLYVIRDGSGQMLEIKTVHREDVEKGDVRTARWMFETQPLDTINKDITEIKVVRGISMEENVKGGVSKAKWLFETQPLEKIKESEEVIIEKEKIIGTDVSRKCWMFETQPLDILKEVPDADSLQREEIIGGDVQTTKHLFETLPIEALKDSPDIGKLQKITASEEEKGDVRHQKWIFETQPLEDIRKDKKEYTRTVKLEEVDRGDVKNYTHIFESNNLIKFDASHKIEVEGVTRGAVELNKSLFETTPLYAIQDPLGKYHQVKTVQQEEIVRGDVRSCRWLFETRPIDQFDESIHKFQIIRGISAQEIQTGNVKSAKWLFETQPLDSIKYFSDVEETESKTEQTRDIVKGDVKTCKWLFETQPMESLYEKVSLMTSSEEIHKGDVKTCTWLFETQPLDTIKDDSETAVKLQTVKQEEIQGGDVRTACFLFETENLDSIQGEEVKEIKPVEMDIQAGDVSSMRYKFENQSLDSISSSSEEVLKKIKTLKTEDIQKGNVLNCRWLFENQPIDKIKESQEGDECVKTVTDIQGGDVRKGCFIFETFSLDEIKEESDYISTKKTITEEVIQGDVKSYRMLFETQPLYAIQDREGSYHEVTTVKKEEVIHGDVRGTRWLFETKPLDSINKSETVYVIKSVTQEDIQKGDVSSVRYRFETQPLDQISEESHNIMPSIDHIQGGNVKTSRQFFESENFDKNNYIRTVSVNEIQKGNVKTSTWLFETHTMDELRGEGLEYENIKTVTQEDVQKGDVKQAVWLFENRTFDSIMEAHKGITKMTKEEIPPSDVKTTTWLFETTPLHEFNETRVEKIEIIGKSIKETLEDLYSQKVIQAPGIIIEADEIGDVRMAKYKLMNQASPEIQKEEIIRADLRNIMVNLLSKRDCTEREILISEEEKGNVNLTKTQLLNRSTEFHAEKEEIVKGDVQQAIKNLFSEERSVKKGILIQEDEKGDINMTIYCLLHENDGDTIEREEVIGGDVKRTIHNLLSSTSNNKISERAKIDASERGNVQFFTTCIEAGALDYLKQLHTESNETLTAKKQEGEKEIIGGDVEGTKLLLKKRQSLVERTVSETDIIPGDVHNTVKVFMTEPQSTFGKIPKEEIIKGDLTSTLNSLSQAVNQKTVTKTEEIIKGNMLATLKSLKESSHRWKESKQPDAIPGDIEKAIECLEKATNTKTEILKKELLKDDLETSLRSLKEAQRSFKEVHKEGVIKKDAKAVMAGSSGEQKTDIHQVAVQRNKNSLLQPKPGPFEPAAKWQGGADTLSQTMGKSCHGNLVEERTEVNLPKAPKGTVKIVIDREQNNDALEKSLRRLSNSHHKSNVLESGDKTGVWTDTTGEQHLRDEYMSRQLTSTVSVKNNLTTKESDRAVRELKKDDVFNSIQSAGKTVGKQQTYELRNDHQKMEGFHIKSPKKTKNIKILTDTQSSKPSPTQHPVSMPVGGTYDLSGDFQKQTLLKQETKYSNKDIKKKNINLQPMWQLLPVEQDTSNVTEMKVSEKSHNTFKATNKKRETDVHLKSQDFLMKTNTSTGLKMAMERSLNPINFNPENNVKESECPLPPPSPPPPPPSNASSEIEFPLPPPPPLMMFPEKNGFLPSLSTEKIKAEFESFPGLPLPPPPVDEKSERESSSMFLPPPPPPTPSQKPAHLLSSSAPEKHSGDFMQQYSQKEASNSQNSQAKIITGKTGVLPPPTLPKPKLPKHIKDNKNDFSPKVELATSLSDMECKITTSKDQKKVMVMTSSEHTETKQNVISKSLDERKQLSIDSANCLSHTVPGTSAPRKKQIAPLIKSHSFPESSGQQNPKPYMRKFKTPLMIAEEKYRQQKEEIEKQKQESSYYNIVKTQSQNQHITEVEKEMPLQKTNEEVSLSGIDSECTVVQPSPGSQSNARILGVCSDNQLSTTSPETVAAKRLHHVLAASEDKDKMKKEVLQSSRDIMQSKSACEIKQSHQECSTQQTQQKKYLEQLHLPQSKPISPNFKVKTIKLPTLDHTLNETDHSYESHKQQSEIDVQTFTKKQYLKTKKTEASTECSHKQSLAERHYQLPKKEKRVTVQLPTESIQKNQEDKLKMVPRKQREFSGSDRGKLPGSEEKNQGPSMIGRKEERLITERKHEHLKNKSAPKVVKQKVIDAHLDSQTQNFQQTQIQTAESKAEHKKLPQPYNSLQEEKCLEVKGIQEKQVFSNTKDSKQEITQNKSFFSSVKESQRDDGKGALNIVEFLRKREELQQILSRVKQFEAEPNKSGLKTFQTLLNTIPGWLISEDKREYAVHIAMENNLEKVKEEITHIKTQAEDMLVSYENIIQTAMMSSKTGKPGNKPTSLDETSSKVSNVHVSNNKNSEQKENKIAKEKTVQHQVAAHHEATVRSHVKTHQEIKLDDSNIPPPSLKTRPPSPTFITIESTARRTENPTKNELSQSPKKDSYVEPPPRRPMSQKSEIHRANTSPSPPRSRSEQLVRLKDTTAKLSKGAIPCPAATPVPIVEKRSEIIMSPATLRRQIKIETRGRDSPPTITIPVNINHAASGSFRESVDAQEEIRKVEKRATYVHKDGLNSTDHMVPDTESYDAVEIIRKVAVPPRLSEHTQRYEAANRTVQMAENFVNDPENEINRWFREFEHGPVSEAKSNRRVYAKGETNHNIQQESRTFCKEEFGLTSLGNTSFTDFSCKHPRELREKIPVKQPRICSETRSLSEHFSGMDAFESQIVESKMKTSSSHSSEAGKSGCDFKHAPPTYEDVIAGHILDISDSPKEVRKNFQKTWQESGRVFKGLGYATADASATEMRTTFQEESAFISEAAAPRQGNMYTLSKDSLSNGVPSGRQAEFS
# UniProt Q96P53: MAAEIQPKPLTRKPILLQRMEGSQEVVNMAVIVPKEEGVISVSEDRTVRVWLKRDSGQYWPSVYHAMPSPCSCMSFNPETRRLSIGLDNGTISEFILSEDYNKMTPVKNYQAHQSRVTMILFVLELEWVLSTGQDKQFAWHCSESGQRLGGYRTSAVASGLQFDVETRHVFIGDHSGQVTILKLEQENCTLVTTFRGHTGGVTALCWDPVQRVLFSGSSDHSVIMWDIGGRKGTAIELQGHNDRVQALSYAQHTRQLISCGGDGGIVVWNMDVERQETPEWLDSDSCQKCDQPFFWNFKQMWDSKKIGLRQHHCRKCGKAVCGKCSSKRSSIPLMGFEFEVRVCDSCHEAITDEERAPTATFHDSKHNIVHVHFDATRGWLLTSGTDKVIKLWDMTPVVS
# UniProt Q9Y4P8: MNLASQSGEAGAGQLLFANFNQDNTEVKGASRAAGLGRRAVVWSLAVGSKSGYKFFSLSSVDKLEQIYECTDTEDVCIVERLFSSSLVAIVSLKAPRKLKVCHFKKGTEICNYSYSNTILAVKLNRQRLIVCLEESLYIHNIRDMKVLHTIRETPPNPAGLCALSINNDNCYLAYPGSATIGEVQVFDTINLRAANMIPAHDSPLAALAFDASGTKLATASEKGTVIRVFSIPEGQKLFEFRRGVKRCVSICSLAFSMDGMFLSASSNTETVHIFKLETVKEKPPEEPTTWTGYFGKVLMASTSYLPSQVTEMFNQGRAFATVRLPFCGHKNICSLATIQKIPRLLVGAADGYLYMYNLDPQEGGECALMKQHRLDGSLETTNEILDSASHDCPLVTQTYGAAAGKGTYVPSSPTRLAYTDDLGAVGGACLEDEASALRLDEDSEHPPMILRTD
# UniProt Q9HD64: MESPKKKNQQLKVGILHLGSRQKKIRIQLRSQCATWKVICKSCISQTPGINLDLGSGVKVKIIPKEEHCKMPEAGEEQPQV
# UniProt P30291: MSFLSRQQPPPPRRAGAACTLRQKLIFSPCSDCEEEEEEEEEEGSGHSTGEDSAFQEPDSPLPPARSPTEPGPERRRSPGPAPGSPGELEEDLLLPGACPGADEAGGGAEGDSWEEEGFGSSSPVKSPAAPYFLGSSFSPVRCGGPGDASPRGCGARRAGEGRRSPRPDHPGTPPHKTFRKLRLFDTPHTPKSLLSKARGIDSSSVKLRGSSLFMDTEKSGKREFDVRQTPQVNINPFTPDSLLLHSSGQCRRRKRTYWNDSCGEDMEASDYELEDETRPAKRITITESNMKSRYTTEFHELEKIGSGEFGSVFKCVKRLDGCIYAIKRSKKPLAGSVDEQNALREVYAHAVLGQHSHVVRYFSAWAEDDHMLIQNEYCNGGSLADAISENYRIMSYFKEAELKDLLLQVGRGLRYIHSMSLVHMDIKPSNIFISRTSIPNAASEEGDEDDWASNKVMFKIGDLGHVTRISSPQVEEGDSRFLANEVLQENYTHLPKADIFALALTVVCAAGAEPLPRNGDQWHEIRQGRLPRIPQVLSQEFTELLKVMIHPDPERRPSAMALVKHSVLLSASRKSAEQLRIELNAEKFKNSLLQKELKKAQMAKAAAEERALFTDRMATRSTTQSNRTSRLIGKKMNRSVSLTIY
# Some of the results follow.
# Experiments:
# Experiment in all cases: log2 fold change, soluble protein after heating vs DMSO (PISA); higher = thermal stabilisation; K562 lysate, 10 uM; active = over 0.2 and 3.5 SD of the protein, either way, in both replicates (recomputed)
# lapatinib = compound: CS(=O)(=O)CCNCc1ccc(-c2ccc3ncnc(Nc4ccc(OCc5cccc(F)c5)c(Cl)c4)c3c2)o1 [lapatinib]
# Method in brief: (§1)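 Quantification was by TMTpro 16plex LC-MS/MS with equalised channel sums, applied to the supernatant after 21,000xg for 90 min. Samples were crude K562 extract at 1 mg/mL protein in PBS pH 7.4 with 1 mM MgCl2, treated with 10 μM compound for 30 min, heated for 3 min across 48°C-58°C, pooled and brought to 0.5% NP-40 at 4°C. Values are log-two fold changes in thermal stability relative to solvent controls, from duplicates.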
# pictilisib = compound: CS(=O)(=O)N1CCN(Cc2cc3nc(-c4cccc5[nH]ncc45)nc(N4CCOCC4)c3s2)CC1 [pictilisib]
# Method in brief: as §1
# duvelisib = compound: C[C@H](Nc1ncnc2nc[nH]c12)c1cc2cccc(Cl)c2c(=O)n1-c1ccccc1 [duvelisib]
# Method in brief: as §1
# bafetinib = compound: Cc1ccc(NC(=O)c2ccc(CN3CC[C@H](N(C)C)C3)c(C(F)(F)F)c2)cc1Nc1nccc(-c2cncnc2)n1 [bafetinib]
# Method in brief: as §1
# nilotinib = compound: Cc1cn(-c2cc(NC(=O)c3ccc(C)c(Nc4nccc(-c5cccnc5)n4)c3)cc(C(F)(F)F)c2)cn1 [nilotinib]
# Method in brief: as §1
# [1] = compound: Cc1nc(Nc2n[nH]c3c2CN(C(=O)N[C@H](CN(C)C)c2ccccc2)C3(C)C)c2sccc2n1
# Method in brief: as §1
# dasatinib = compound: Cc1nc(Nc2ncc(C(=O)Nc3c(C)cccc3Cl)s2)cc(N2CCN(CCO)CC2)n1 [dasatinib]
# Method in brief: as §1
# [2] = compound: Cc1ncc(-c2ccnc(Nc3ccc(S(C)(=O)=O)cc3)n2)n1C(C)C
# Method in brief: as §1
# [3] = compound: Cn1cc(-c2ccc3c(c2)CCN3C(=O)Cc2cccc(C(F)(F)F)c2)c2c(N)ncnc21
# Method in brief: as §1
# tipifarnib = compound: Cn1cncc1[C@@](N)(c1ccc(Cl)cc1)c1ccc2c(c1)c(-c1cccc(Cl)c1)cc(=O)n2C [tipifarnib]
# Method in brief: as §1
# [4] = compound: NC(=O)c1cnc(N[C@@H]2CCCC[C@@H]2N)nc1Nc1cccc(-n2nccn2)c1
# Method in brief: as §1
# crizotinib = compound: C[C@@H](Oc1cc(-c2cnn(C3CCNCC3)c2)cnc1N)c1c(Cl)ccc(F)c1Cl [crizotinib]
# Method in brief: as §1
# [5] = compound: C[C@H](C1=CC=C(C=C1)C(=O)NC2=C3C=CNC3=NC=C2)N
# Method in brief: as §1
# gandotinib = compound: Cc1cc(Nc2cc(CN3CCOCC3)c3nc(C)c(Cc4ccc(Cl)cc4F)n3n2)n[nH]1 [gandotinib]
# Method in brief: as §1
# tozasertib = compound: Cc1cc(Nc2cc(N3CCN(C)CC3)nc(Sc3ccc(NC(=O)C4CC4)cc3)n2)n[nH]1 [tozasertib]
# Method in brief: as §1
# doramapimod = compound: Cc1ccc(-n2nc(C(C)(C)C)cc2NC(=O)Nc2ccc(OCCN3CCOCC3)c3ccccc23)cc1 [doramapimod]
# Method in brief: as §1
# [6] = compound: Cc1cccc(CC(=O)N2CCc3c2ccc(-c2cn(C)c4ncnc(N)c24)c3F)n1
# Method in brief: as §1
# quisinostat = compound: Cn1cc(CNCC2CCN(c3ncc(C(=O)NO)cn3)CC2)c2ccccc21 [quisinostat]
# Method in brief: as §1
# [7] = compound: NC(=O)Nc1cc(-c2cccc(F)c2)sc1C(=O)N[C@H]1CCCNC1
# Method in brief: as §1
# [8] = compound: NC1(c2ccc(-c3nc4ccn5c(=O)[nH]nc5c4cc3-c3ccccc3)cc2)CCC1
# Method in brief: as §1
Target,log2 fold change (lapatinib),log2 fold change (pictilisib),log2 fold change (duvelisib),log2 fold change (bafetinib),log2 fold change (nilotinib),log2 fold change [1],log2 fold change (dasatinib),log2 fold change [2],log2 fold change [3],log2 fold change (tipifarnib),log2 fold change [4],log2 fold change (crizotinib),log2 fold change [5],log2 fold change (gandotinib),log2 fold change (tozasertib),log2 fold change (doramapimod),log2 fold change [6],log2 fold change (quisinostat),log2 fold change [7],log2 fold change [8]
WDR83 (UniProt Q9BRX9),inactive: -0.151,inactive: -0.062,inactive: 0.045,inactive: -0.092,inactive: 0.173,inactive: 0.092,inactive: -0.116,inactive: 0.058,inactive: 0.137,inactive: -0.216,inactive: -0.039,–,–,–,–,–,–,–,–,–
WASH6P (UniProt Q9NQA3),–,inactive: -0.195,–,inactive: -0.056,–,–,–,–,–,–,–,–,–,–,–,–,–,–,–,–
WDR33 (UniProt Q9C0J8),inactive: -0.012,inactive: -0.033,inactive: 0.015,inactive: 0.006,inactive: -0.052,inactive: 0.031,inactive: 0.008,inactive: 0.106,inactive: 0.007,inactive: 0.026,inactive: -0.029,inactive: -0.023,inactive: -0.037,inactive: 0.043,inactive: 0.047,inactive: 0.013,inactive: 0.032,inactive: -0.028,inactive: 0.055,inactive: -0.011
WDR7 (UniProt Q9Y4E6),inactive: -0.029,inactive: -0.037,inactive: -0.008,inactive: -0.04,inactive: 0.001,inactive: -0.018,inactive: -0.088,inactive: -0.011,inactive: 0.003,inactive: -0.032,inactive: 0.007,inactive: -0.058,inactive: -0.076,inactive: 0.014,inactive: -0.012,inactive: 0.043,inactive: 0.085,inactive: -0.016,inactive: 0.014,inactive: -0.03
WNK4 (UniProt Q96J92),inactive: -0.063,inactive: -0.026,inactive: -0.007,inactive: -0.024,inactive: 0.039,inactive: 0.055,inactive: -0.065,inactive: 0.005,inactive: 0.056,inactive: 0.059,inactive: 0.063,inactive: -0.076,inactive: 0.209,inactive: -0.255,inactive: 0.006,inactive: 0.023,inactive: -0.104,inactive: -0.076,inactive: 0.07,inactive: -0.038
XIRP2 isoform 8 (UniProt A4UGR9),inactive: -0.005,inactive: -0.015,–,inactive: -0.153,inactive: 0.245,inactive: -0.06,–,inactive: -0.121,–,inactive: 0.028,inactive: 0.065,–,–,–,–,–,–,–,–,–
WDFY2 (UniProt Q96P53),–,–,inactive: -0.032,–,–,–,inactive: -0.063,–,inactive: 0.018,–,–,–,–,–,–,–,–,–,–,inactive: -0.139
WIPI2 (UniProt Q9Y4P8),inactive: 0.006,inactive: -0.024,inactive: -0.008,inactive: -0.025,inactive: 0.032,inactive: 0.043,inactive: 0.007,inactive: -0.018,inactive: -0.004,inactive: 0.011,inactive: -0.005,inactive: -0.02,inactive: -0.086,inactive: 0.089,inactive: -0.003,inactive: 0.098,inactive: 0.035,inactive: -0.054,inactive: 0.053,inactive: 0.021
WSB1 (UniProt Q9Y6I7),–,–,inactive: -0.137,–,–,–,inactive: -0.194,–,inactive: 0.012,–,–,–,inactive: 0.12,active: -1.11,–,–,inactive: -0.674,–,–,–
WIPI2 isoform 6 (UniProt Q9Y4P8),–,inactive: -0.102,–,inactive: -0.013,–,–,–,–,–,–,–,–,inactive: 0.025,inactive: 0.181,–,–,inactive: -0.089,–,–,–
XAGE1A (UniProt Q9HD64),–,inactive: -0.032,–,inactive: 0.087,inactive: -0.017,inactive: -0.058,–,inactive: 0.159,–,inactive: -0.139,–,–,–,–,inactive: -0.094,–,–,–,–,–
WEE1 (UniProt P30291),inactive: -0.034,inactive: -0.047,inactive: 0.033,inactive: 0.068,inactive: -0.002,inactive: 0.001,active: 0.397,inactive: -0.033,inactive: -0.002,inactive: -0.007,inactive: -0.106,inactive: -0.141,–,–,inactive: 0.011,inactive: 0.183,–,inactive: -0.069,inactive: 0.223,inactive: -0.044
WDR54 isoform 4 (UniProt Q9H977),–,inactive: -0.147,inactive: -0.022,inactive: 0.069,–,–,inactive: 0.14,–,inactive: -0.083,–,–,inactive: 0.04,inactive: 0.066,inactive: -0.322,inactive: -0.187,inactive: -0.017,inactive: 0.001,inactive: -0.09,inactive: 0.056,–
WIPF1 isoform 3 (UniProt O43516),inactive: -0.032,inactive: -0.024,inactive: -0.168,inactive: -0.098,inactive: 0.008,inactive: 0.008,inactive: -0.017,inactive: 0.003,inactive: -0.09,inactive: -0.01,inactive: 0.066,inactive: -0.007,inactive: -0.072,inactive: 0.044,inactive: -0.001,inactive: -0.005,inactive: 0.116,inactive: -0.078,inactive: 0.036,inactive: 0.009

# Reformatted: results already given.
Target | log2 fold change (lapatinib) | log2 fold change (pictilisib) | log2 fold change (duvelisib) | log2 fold change (bafetinib) | log2 fold change (nilotinib) | log2 fold change [1] | log2 fold change (dasatinib) | log2 fold change [2] | log2 fold change [3] | log2 fold change (tipifarnib) | log2 fold change [4] | log2 fold change (crizotinib) | log2 fold change [5] | log2 fold change (gandotinib) | log2 fold change (tozasertib) | log2 fold change (doramapimod) | log2 fold change [6] | log2 fold change (quisinostat) | log2 fold change [7] | log2 fold change [8]
WSB1 (UniProt Q9Y6I7) | – | – | inactive: -0.137 | – | – | – | inactive: -0.194 | – | inactive: 0.012 | – | – | – | inactive: 0.12 | active: -1.11 | – | – | inactive: -0.674 | – | – | –
WIPI2 isoform 6 (UniProt Q9Y4P8) | – | inactive: -0.102 | – | inactive: -0.013 | – | – | – | – | – | – | – | – | inactive: 0.025 | inactive: 0.181 | – | – | inactive: -0.089 | – | – | –
